Paper PMC6166740
Results are given in words; binding and its absence hold for the method and conditions named. Binding seen in cells or lysates may run through a third protein. Some binding calls cover weakened binding; strength is not graded here. Tags and fused reporters may be left off the sequences shown.

Amino acid sequences for entries named in this document (tags omitted). Residues count along the entry.
UniProt Q7Z494: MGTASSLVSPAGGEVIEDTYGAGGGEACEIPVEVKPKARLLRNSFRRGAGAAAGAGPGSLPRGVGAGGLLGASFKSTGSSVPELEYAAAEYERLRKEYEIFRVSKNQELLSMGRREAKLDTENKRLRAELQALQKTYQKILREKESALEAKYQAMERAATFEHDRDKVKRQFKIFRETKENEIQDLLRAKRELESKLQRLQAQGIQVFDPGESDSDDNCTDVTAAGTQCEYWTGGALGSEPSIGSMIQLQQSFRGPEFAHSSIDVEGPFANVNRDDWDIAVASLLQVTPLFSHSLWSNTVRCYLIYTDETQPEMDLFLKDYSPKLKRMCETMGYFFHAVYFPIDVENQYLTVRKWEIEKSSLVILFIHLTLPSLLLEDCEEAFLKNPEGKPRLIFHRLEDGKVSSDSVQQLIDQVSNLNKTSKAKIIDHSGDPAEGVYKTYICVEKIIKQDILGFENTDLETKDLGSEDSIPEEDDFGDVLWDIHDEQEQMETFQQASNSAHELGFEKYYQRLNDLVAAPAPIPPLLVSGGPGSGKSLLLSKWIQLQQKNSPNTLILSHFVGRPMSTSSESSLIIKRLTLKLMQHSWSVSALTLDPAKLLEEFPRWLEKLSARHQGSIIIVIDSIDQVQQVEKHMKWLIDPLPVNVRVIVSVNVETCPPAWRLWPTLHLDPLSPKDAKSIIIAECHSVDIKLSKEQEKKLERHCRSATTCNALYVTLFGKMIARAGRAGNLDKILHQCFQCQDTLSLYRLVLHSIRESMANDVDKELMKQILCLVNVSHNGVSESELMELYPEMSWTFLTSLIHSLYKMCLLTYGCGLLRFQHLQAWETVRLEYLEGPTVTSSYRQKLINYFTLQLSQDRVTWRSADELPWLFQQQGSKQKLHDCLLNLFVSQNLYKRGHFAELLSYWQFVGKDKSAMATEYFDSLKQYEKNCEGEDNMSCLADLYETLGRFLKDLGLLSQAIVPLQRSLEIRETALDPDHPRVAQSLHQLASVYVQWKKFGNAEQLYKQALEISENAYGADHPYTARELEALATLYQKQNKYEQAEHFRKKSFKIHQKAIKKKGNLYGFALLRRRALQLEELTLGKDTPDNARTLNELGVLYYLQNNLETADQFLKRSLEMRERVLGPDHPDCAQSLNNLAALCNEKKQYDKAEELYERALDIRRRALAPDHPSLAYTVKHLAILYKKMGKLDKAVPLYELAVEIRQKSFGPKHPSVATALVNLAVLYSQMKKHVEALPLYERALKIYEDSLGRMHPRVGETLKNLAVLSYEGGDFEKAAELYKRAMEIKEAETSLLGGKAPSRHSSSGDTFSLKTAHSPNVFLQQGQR
UniProt Q9UG01: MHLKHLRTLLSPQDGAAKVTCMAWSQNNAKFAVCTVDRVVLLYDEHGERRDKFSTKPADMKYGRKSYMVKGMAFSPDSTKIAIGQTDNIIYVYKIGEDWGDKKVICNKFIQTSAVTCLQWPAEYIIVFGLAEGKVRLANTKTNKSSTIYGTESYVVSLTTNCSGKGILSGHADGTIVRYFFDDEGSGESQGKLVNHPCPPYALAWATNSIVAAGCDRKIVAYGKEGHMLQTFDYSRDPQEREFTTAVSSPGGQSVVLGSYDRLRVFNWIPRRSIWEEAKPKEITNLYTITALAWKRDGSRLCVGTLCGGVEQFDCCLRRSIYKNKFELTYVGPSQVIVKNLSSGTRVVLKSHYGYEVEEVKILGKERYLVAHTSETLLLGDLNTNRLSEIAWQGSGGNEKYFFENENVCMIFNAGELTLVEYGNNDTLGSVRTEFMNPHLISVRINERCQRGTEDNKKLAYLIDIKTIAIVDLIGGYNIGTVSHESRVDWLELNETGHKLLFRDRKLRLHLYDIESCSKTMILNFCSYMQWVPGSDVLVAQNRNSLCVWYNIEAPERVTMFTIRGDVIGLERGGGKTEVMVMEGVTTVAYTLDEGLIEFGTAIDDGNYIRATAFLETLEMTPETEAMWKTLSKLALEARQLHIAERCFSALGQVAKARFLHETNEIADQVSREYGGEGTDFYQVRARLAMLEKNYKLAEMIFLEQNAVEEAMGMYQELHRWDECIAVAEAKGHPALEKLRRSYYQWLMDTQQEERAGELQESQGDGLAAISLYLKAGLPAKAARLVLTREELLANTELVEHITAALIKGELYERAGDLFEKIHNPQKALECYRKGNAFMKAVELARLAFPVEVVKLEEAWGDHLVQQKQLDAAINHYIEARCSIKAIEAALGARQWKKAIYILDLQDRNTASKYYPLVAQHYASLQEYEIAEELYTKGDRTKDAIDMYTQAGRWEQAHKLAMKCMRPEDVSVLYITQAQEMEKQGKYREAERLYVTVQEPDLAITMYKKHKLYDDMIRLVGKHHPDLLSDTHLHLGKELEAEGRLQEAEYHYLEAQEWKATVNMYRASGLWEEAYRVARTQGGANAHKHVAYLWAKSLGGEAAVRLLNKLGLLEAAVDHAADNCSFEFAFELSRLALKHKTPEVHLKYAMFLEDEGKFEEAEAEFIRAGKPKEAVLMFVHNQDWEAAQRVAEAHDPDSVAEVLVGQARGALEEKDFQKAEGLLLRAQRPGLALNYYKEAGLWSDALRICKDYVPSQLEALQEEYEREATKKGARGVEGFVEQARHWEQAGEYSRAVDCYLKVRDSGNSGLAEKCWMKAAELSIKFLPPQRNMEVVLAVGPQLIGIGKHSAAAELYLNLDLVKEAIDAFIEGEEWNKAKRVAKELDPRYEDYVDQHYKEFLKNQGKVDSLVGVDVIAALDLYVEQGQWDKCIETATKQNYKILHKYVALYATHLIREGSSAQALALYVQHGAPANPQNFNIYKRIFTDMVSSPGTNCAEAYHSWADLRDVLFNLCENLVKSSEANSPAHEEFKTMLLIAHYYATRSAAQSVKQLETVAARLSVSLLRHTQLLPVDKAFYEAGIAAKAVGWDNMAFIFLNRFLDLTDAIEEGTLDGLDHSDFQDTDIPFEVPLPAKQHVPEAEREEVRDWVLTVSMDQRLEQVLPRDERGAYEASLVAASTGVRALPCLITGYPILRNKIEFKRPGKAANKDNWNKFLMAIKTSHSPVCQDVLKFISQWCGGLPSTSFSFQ
UniProt Q17R60, residues 21-797: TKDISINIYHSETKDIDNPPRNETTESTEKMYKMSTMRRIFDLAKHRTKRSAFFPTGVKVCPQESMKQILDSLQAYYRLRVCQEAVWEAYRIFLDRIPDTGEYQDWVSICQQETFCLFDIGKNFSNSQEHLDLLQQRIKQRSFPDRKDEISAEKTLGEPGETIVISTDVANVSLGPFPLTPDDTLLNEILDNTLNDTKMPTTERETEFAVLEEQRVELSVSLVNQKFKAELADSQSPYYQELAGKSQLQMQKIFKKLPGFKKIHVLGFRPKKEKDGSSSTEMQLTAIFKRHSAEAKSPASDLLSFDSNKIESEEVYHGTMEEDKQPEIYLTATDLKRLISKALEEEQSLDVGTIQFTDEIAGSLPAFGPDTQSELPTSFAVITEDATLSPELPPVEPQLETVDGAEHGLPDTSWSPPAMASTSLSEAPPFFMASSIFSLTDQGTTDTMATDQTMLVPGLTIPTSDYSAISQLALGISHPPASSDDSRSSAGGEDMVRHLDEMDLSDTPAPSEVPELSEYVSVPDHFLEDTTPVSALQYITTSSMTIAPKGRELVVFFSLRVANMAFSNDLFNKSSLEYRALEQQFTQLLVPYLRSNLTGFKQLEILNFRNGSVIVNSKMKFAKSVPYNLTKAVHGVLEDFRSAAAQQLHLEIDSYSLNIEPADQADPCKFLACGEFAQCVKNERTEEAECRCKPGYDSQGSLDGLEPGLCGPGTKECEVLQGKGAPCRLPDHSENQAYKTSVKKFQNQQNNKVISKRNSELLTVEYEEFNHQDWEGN

T1: FLAG-tagged ANKS6 (UniProt Q68DC2)
T1 sequence: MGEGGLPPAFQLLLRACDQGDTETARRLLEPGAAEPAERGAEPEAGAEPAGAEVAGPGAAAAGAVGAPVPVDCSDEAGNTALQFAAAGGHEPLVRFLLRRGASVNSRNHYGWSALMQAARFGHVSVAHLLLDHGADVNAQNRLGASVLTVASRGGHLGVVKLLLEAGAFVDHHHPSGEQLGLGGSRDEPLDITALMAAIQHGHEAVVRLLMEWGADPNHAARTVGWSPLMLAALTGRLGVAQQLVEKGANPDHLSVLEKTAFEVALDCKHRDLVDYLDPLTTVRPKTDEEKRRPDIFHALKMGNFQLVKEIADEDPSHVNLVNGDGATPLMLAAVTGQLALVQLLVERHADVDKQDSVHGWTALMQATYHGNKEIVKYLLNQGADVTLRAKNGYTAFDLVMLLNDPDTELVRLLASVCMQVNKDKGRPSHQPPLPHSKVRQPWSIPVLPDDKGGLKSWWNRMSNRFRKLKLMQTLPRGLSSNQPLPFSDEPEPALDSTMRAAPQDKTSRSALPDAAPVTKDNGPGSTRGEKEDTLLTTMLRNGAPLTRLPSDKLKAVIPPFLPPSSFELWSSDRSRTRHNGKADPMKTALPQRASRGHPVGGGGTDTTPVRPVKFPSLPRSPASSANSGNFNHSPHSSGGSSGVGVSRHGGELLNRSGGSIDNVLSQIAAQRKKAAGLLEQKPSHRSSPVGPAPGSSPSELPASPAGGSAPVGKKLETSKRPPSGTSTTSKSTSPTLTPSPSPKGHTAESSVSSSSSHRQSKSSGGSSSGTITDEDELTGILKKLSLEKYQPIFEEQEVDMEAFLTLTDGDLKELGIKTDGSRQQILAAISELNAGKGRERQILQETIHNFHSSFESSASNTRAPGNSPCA

T2: FLAG-tagged DZIP1 (UniProt Q86YF9)
T2 sequence: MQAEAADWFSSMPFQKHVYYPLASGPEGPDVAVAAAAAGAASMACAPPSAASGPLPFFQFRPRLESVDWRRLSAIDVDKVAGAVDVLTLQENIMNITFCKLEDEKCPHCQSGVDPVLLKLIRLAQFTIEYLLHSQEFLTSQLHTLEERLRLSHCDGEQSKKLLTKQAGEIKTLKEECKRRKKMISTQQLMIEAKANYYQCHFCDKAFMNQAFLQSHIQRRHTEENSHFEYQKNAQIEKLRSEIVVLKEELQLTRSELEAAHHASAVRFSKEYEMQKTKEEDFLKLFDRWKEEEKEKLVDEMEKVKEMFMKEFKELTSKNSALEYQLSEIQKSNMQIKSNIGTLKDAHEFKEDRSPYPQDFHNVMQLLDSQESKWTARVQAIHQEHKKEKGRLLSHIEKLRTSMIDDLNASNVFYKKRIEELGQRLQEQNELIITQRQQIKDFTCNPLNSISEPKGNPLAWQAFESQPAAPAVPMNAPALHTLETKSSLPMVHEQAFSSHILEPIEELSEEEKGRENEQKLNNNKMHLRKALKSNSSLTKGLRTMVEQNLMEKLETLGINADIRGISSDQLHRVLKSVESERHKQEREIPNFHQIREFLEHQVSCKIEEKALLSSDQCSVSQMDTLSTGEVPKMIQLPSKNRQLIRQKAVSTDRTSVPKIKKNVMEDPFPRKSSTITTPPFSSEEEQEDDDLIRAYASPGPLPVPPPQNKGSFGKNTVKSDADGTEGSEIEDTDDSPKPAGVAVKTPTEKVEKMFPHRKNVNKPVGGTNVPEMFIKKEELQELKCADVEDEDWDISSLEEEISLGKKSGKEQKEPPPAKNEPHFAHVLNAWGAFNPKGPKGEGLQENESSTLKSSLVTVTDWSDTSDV

T3: FLAG-tagged NME3 (NME/NM23 nucleoside-diphosphate kinase 3), wild type (human) (UniProt Q13232)
T3 sequence: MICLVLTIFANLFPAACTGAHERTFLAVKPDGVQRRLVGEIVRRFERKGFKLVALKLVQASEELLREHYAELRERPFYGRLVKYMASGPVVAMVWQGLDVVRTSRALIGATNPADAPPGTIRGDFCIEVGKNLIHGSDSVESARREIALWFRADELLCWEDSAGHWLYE


What was measured:
Experiment in all cases: co-IP; FLAG-tagged and V5-tagged proteins coexpressed in HEK293T cells (calcium phosphate, 24 h); lysis in 1% Triton X-100, 20 mM Tris pH 7.5, 50 mM NaCl, 50 mM NaF, 15 mM Na4P2O7, 0.1 mM EDTA; anti-FLAG M2 agarose beads 2 h; Western blot with anti-V5 and anti-FLAG
FLAG-tagged ANKS6 = target: T1, FLAG-tagged ANKS6
FLAG-tagged NPHP3 = FLAG-tagged NPHP3 (UniProt Q7Z494)
IFT172 = IFT172 (UniProt Q9UG01)
FLAG-tagged DZIP1 = target: T2, FLAG-tagged DZIP1
[1] = target: T3, FLAG-tagged NME3 (NME/NM23 nucleoside-diphosphate kinase 3), wild type (human)
[2] = target: FLAG-tagged IMPG1 (interphotoreceptor matrix glycoprotein) (UniProt Q17R60)

| binding (FLAG-tagged ANKS6) | binding (FLAG-tagged NPHP3) | binding (IFT172) | binding (FLAG-tagged DZIP1) | binding [1] | binding [2] | Binder |
| --- | --- | --- | --- | --- | --- | --- |
| binds | binds | binds |  |  |  | V5-tagged NME3 (enzyme, UniProt Q13232 1-169) MICLVLTIFANLFPAACTGAHERTFLAVKPDGVQRRLVGEIVRRFERKGFKLVALKLVQASEELLREHYAELRERPFYGRLVKYMASGPVVAMVWQGLDVVRTSRALIGATNPADAPPGTIRGDFCIEVGKNLIHGSDSVESARREIALWFRADELLCWEDSAGHWLYE |
|  |  |  | binds | binds | binds | V5-tagged ANKS6 (ankyrin repeat and sterile alpha motif domain-containing 6) (protein, UniProt Q68DC2 1-871) MGEGGLPPAFQLLLRACDQGDTETARRLLEPGAAEPAERGAEPEAGAEPAGAEVAGPGAAAAGAVGAPVPVDCSDEAGNTALQFAAAGGHEPLVRFLLRRGASVNSRNHYGWSALMQAARFGHVSVAHLLLDHGADVNAQNRLGASVLTVASRGGHLGVVKLLLEAGAFVDHHHPSGEQLGLGGSRDEPLDITALMAAIQHGHEAVVRLLMEWGADPNHAARTVGWSPLMLAALTGRLGVAQQLVEKGANPDHLSVLEKTAFEVALDCKHRDLVDYLDPLTTVRPKTDEEKRRPDIFHALKMGNFQLVKEIADEDPSHVNLVNGDGATPLMLAAVTGQLALVQLLVERHADVDKQDSVHGWTALMQATYHGNKEIVKYLLNQGADVTLRAKNGYTAFDLVMLLNDPDTELVRLLASVCMQVNKDKGRPSHQPPLPHSKVRQPWSIPVLPDDKGGLKSWWNRMSNRFRKLKLMQTLPRGLSSNQPLPFSDEPEPALDSTMRAAPQDKTSRSALPDAAPVTKDNGPGSTRGEKEDTLLTTMLRNGAPLTRLPSDKLKAVIPPFLPPSSFELWSSDRSRTRHNGKADPMKTALPQRASRGHPVGGGGTDTTPVRPVKFPSLPRSPASSANSGNFNHSPHSSGGSSGVGVSRHGGELLNRSGGSIDNVLSQIAAQRKKAAGLLEQKPSHRSSPVGPAPGSSPSELPASPAGGSAPVGKKLETSKRPPSGTSTTSKSTSPTLTPSPSPKGHTAESSVSSSSSHRQSKSSGGSSSGTITDEDELTGILKKLSLEKYQPIFEEQEVDMEAFLTLTDGDLKELGIKTDGSRQQILAAISELNAGKGRERQILQETIHNFHSSFESSASNTRAPGNSPCA |
